Data on 1 compound can be found in the supplement of paper PMC9938120.

What all share (test): drug sensitivity score (DSS3, normalised partial AUC of % inhibition dose-response) (DSS (score)); higher = more sensitive (stronger inhibition of viability); extreme values may be limits of the assay
What all share (conditions): 72 h; library: FO5A; assay format: 2D, 384-well, CellTiter-Glo

One test concerns FMOC02_1 (patient-derived low-grade serous ovarian cancer cells). The procedure, abridged: (§1)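 The drug sensitivity score is calculated as a partial area under the percent-inhibition dose-response curve, divided by the log of the upper asymptote; higher scores mean more sensitive. For this score, early-passage (under 10) patient-derived ovarian cancer cells were exposed on 384-well flat clear-bottom plates to compounds at five concentrations across a 10,000-fold range for 72 h at 37 °C, 5% CO2. Viability was read with CellTiter-Glo and processed in Breeze.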

The subject of another test is FMOC02_3 (patient-derived low-grade serous ovarian cancer cells). The procedure, abridged: as §1
For another test, the system named is FMOC03 (patient-derived mucinous ovarian cancer cells). The essentials:
as §1

The subject of another test is FMOC04 (patient-derived high-grade serous ovarian cancer cells). The essentials: as §1
The subject of a further test is FMOC06 (patient-derived mucinous ovarian cancer cells). The procedure, abridged: as §1
The test system of the next test is FMOC09 (patient-derived high-grade serous ovarian cancer cells). The essentials:
as §1

The test system of the next test is FMOC11 (patient-derived high-grade serous ovarian cancer cells). The essentials:
as §1

The next test concerns FMOC14 (patient-derived high-grade serous ovarian cancer cells). The essentials: as §1
In the next test the test system is FMOC17 (patient-derived low-grade serous ovarian cancer cells). The essentials: as §1
A further test concerns FMOC22 (patient-derived mucinous ovarian cancer cells). The procedure, abridged: as §1
The test system of a further test is FMOC24 (patient-derived high-grade serous ovarian cancer cells). The essentials:
as §1

Another test deals with FMOC25_2 (patient-derived low-grade serous ovarian cancer cells). The procedure, abridged: as §1
The subject of another test is FMOC27 (patient-derived low-grade serous ovarian cancer cells). The essentials:
as §1

A further test relates to FMOC28 (patient-derived low-grade serous ovarian cancer cells). The procedure, abridged:
as §1

For `C[C@@H]1C[C@H](N)C[C@H](c2ccncc2NC(=O)c2ccc(F)c(-c3c(F)cccc3F)n2)C1` [PIM-447], the drug sensitivity score in the test with FMOC02_1 was 4.9; in the test with FMOC02_3 it was 6; with FMOC03, 0.2; in the test with FMOC04 it was 0; with FMOC06, 3.8; in the test with FMOC09, 0.8. For the same compound, the drug sensitivity score in the test with FMOC11 was 1.9; with FMOC14, 1.5; in the test with FMOC17, 4.8; in the test with FMOC22 it was 1; in the test on FMOC24 it was 6; in the test with FMOC25_2, 5.6. The figures for the drug sensitivity score with FMOC27 and with FMOC28 were 0 and 6.1, respectively.
